# Measurements from US20100196907A1, “MARKERS TO PREDICT AND MONITOR RESPONSE TO AURORA KINASE B INHIBITOR THERAPY” (ABBOTT LABORATORIES, priority 2009, published 2010).
# At least one structure is not confirmed: it was looked up by name or label, or the drawing left a doubt.
# Experiments:
# [1] = system: SW620 colorectal tumor; settings: cited from earlier work
# [2] = system: DoHH-2 B-cell lymphoma xenografts; test: xenograft growth, DoHH-2; format: in vivo, mice
# [3] = system: SW620^ABCB1/3 tumors; test: xenograft efficacy, SW620^ABCB1/3; format: in vivo, mice; settings: 50 or 100 mg/kg/day i.p. q2d for 2 weeks
# [4] = system: human colon, lung, and hematologic tumor xenografts; settings: immunodeficient mice; cited from earlier work
# [5] = system: SW620 xenografts; test: xenograft efficacy, SW620; format: in vivo, mice; settings: 50 or 100 mg/kg/day i.p. q2d for 2 weeks
# [6] = system: HCT-15 colon carcinoma xenografts; test: xenograft growth, HCT-15; format: in vivo, mice
# [7] = system: HCT116; test: xenograft growth, HCT116; format: in vivo, mice
smiles,measurement,setting,value
"CCN(CCCOc1ccc2c(Nc3cc(CC(=O)Nc4cccc(F)c4)n[nH]3)ncnc2c1)CCOP(=O)(O)O [AZD1152, 2-[[3-({4-[(5-{2-[(3-Fluorophenyl)amino]-2-oxoethyl}-1H-pyrazol-3-yl)amino]-quinazolin-7-yl}oxy)propyl](ethyl)amino)ethyl dihydrogen phosphate]",histone H3 phosphorylation in tumors,[1]; athymic rats treated intravenously,transient suppression of histone H3 phosphorylation
same,apoptosis in treated tumors (histologic analysis),"[1]; rat, in vivo",increase in apoptosis
same,tumor growth inhibition,[2],significant tumor growth inhibition
same,antitumor effect,[3],little or no antitumor effect
same,growth of tumor xenografts,[4],potently inhibits the growth
same,antitumor activity,[5],highly efficacious activity
same,xenograft growth under treatment,[6],unabated
same,tumor growth inhibition,[7],significant tumor growth inhibition
